Source: patent US10618901B2 (GlaxoSmithKline Intellectual Property Development Limited, priority 2014, dated 2020)
Read-outs that look alike come from different tables or passages of the source. Some entries share one result that the patent states for a list of compounds.

Amino acid sequences for entries named in this document (tags omitted). A change or cut given only in a name is not applied to a line headed by its entry.
UniProt Q5S007: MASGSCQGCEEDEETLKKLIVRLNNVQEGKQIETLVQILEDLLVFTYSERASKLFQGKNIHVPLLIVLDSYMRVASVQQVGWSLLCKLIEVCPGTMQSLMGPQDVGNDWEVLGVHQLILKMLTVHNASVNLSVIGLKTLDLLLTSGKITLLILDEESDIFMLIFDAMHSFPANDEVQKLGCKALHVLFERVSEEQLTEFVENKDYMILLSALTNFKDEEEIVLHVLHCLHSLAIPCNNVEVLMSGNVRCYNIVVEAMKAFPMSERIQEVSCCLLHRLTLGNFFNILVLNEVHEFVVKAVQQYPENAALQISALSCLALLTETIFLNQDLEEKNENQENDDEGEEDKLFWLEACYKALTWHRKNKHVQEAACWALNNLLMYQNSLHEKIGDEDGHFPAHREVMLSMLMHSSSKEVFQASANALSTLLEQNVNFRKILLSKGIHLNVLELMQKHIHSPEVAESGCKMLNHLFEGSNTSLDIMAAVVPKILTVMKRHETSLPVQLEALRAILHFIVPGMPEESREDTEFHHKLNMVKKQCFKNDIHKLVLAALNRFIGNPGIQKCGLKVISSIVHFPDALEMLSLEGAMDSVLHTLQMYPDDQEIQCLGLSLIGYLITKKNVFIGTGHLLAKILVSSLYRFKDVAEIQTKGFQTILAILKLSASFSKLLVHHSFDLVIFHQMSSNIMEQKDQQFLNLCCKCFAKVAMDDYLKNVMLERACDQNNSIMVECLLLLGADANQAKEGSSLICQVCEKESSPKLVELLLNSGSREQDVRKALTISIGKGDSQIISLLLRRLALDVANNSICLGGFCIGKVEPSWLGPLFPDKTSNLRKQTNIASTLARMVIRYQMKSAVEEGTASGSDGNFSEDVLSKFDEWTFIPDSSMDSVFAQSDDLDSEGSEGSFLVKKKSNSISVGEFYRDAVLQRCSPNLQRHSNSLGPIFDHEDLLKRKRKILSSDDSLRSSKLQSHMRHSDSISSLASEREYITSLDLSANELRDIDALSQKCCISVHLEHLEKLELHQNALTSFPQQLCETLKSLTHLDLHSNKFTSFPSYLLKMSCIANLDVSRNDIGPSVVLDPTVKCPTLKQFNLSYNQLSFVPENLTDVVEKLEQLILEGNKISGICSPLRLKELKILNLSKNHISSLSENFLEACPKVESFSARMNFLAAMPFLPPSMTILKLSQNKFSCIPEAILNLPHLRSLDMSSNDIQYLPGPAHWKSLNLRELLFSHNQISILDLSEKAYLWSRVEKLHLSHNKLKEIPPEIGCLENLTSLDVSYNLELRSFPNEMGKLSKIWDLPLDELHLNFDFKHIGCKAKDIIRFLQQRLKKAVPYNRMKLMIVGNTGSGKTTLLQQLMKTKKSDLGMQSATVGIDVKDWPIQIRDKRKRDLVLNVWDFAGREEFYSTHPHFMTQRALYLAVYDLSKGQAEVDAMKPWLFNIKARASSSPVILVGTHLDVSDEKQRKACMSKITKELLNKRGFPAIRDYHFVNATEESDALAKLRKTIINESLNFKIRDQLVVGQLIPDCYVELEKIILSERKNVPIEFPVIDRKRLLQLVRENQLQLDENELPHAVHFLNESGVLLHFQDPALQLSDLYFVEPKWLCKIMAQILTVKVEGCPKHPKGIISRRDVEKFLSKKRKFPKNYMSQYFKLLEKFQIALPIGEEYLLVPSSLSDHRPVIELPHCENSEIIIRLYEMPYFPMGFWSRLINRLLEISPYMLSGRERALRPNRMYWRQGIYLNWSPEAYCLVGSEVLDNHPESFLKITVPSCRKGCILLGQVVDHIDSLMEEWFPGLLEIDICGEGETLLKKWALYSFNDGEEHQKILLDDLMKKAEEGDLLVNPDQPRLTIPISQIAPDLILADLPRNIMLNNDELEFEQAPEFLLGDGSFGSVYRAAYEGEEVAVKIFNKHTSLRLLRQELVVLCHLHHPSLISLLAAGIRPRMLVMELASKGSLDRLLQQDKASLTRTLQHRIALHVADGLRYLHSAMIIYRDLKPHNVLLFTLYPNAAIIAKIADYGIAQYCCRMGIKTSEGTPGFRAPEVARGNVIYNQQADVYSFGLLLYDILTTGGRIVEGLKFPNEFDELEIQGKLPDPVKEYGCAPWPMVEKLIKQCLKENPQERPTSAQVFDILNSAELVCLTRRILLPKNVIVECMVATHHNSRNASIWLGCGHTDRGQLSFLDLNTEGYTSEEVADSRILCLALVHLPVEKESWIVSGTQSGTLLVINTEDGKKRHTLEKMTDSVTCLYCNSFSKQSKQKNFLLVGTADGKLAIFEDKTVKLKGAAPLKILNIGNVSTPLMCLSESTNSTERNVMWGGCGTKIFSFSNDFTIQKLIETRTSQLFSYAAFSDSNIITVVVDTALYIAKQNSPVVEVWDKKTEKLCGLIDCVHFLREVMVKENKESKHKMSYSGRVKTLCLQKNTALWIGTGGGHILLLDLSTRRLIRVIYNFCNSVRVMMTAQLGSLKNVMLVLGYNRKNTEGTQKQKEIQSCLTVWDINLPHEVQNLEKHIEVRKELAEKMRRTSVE

Target: T1, LRRK2 Ser935 phosphorylation in SH-SY5Y cells over-expressing recombinant full length LRRK2 (Homo sapiens, UniProt Q5S007)
T1 construct: A BacMam virus expressing full length recombinant LRRK2 was purchased from Invitrogen; host or cells: SH-SY5Y (BacMam transduction)
Experiment: Recombinant cellular LRRK2 AlphaScreen assay
Assay type: cell-based
Method in brief: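 SH-SY5Y cells transduced with BacMam full-length LRRK2 (MOI 50, 24 h) were treated with compound, top final 10 uM, for 60 min at 37° C. Lysates were assayed by AlphaScreen for pSer935 and total LRRK2. Dose-response fitted to a sigmoidal model.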

SMILES | pIC50 in the recombinant cellular LRRK2 alphaScreen assay | also measured
CCOc1nc(Nc2cnn([C@H]3CCCN(C4COC4)C3)c2C)nc2[nH]ccc12 [Example E136, (S)-4-ethoxy-N-(5-methyl-1-(1-(oxetan-3-yl)piperidin-3-yl)-1H-pyrazol-4-yl)-7H-pyrrolo[2,3-d]pyrimidin-2-amine] | ≥ 5.0 | 
CCOc1nc(Nc2cnn(C3CN(C)CCC3(F)F)c2C)nc2[nH]ccc12 (single isomer, unassigned) [Example E121, N-(1-(4,4-difluoro-1-methylpiperidin-3-yl)-5-methyl-1H-pyrazol-4-yl)-4-ethoxy-7H-pyrrolo[2,3-d]pyrimidin-2-amine] |  | pIC50 in the recombinant cellular LRRK2 alphaScreen assay (text statement, listed as Example E121): ≥ 5.0
CCOc1nc(Nc2cnn(C3COC3)c2C)nc2[nH]ccc12 [Example E34, 4-ethoxy-N-(5-methyl-1-(oxetan-3-yl)-1H-pyrazol-4-yl)-7H-pyrrolo[2,3-d]pyrimidin-2-amine] | ≥ 5.0 | 
CCOc1nc(Nc2cnn(C)c2Cl)nc2[nH]ccc12 [Example E4, N-(5-chloro-1-methyl-1H-pyrazol-4-yl)-4-ethoxy-7H-pyrrolo-[2,3-d]-pyrimidin-2-amine] | ≥ 5.0 | 
CCOc1nc(Nc2cnn(CC(C)N3CCOCC3)c2C)nc2[nH]ccc12 (single isomer, unassigned) [Example E91] |  | pIC50 in the recombinant cellular LRRK2 alphaScreen assay (text statement, listed as Example E91): ≥ 5.0
CCOc1nc(Nc2cnn(CC(C)(C)O)c2C)nc2[nH]ccc12 [Example E3, 1-(4-((4-ethoxy-7H-pyrrolo-[2,3-d]pyrimidin-2-yl)amino)-5-methyl-1H-pyrazol-1-yl)-2-methylpropan-2-ol] | ≥ 5.0 | 
CCOc1nc(Nc2cnn(C3CCN(C4COC4)CC3(C)F)c2C)nc2[nH]ccc12 (single isomer, unassigned) [Example E139, (4-ethoxy-7H-pyrrolo[2,3-d]pyrimidin-2-yl)-[1-(3-fluoro-3-methyl-1-oxetan-3-yl-piperidin-4-yl)-5-methyl-1H-pyrazol-4-yl]-amine] |  | pIC50 in the recombinant cellular LRRK2 alphaScreen assay (text statement, listed as Example E139): ≥ 5.0
CCOc1nc(Nc2cnn(CC3COC3)c2C)nc2[nH]ccc12 [Example E29, 4-ethoxy-N-(5-methyl-1-(oxetan-3-yl-methyl)-1H-pyrazol-4-yl)-7H-pyrrolo-[2,3-d]pyrimidin-2-amine] | ≥ 5.0 | 
CCOc1nc(Nc2cnn([C@@H]3CCN(C4COC4)C[C@H]3F)c2Cl)nc2[nH]ccc12 (single isomer, unassigned) [Example E105] | ≥ 5.0 | 
CCOc1nc(Nc2cnn(C(C)(C)CO)c2C)nc2[nH]ccc12 [Example E65, 2-(4-((4-ethoxy-7H-pyrrolo-[2,3-d]pyrimidin-2-yl)amino)-5-methyl-1H-pyrazol-1-yl)-2-methylpropan-1-ol] | ≥ 5.0 | 
CCOc1nc(Nc2cnn(C3CC(N4CCOCC4)C3)c2C)nc2[nH]ccc12 (stereo not shown) [Example E86, 4-ethoxy-N-(5-methyl-1-(3-morpholinocyclobutyl)-1H-pyrazol-4-yl)-7H-pyrrolo[2,3-d] pyrimidin-2-amine] | ≥ 5.0 | 
CCOc1nc(Nc2cnn(C(C)(C)C#N)c2C)nc2[nH]ccc12 [Example E96, 2-(4-((4-ethoxy-7H-pyrrolo[2,3-d]pyrimidin-2-yl)amino)-5-methyl-1H-pyrazol-1-yl)-2-methylpropanenitrile] | ≥ 5.0 | 
CCOc1nc(Nc2cnn(C3CCN(C4COC4)CC3F)c2C)nc2[nH]ccc12 (single isomer, unassigned) [Example E102, cis-4-ethoxy-N-(1-(3-fluoro-1-(oxetan-3-yl)piperidin-4-yl)-5-methyl-1H-pyrazol-4-yl)-7H-pyrrolo[2,3-d]pyrimidin-2-amine] |  | pIC50 in the recombinant cellular LRRK2 alphaScreen assay (text statement, listed as Example E102): ≥ 5.0
CCOc1nc(Nc2cn(C)nc2C)nc2[nH]ccc12 [Example E1, N-(1,3-dimethyl-1H-pyrazol-4-yl)-4-ethoxy-7H-pyrrolo[2,3-d]pyrimidin-2-amine] | ≥ 5.0 | 
CCOc1nc(Nc2cnn(C3CCN(C4COC4)CC3(F)F)c2Cl)nc2[nH]ccc12 (single isomer, unassigned) [Example E134, N-(5-chloro-1-(3,3-difluoro-1-(oxetan-3-yl)piperidin-4-yl)-1H-pyrazol-4-yl)-4-ethoxy-7H-pyrrolo[2,3-d]pyrimidin-2-amine] |  | pIC50 in the recombinant cellular LRRK2 alphaScreen assay (text statement, listed as Example E134): ≥ 5.0
CCOc1nc(Nc2cnn(C3CCOCC3)c2C)nc2[nH]ccc12 [Example E11, 4-ethoxy-N-(5-methyl-1-(tetrahydro-2H-pyran-4-yl)-1H-pyrazol-4-yl)-7H-pyrrolo-[2,3-d]-pyrimidin-2-amine] | ≥ 5.0 | 
